Measurements published in the supplement of paper PMC10849652.
Some of the results follow.

Sequences of proteins named here, by UniProt entry; tags and fusion partners are left off. A change or cut given only in a name is not applied to a line headed by its entry.
UniProt P21817: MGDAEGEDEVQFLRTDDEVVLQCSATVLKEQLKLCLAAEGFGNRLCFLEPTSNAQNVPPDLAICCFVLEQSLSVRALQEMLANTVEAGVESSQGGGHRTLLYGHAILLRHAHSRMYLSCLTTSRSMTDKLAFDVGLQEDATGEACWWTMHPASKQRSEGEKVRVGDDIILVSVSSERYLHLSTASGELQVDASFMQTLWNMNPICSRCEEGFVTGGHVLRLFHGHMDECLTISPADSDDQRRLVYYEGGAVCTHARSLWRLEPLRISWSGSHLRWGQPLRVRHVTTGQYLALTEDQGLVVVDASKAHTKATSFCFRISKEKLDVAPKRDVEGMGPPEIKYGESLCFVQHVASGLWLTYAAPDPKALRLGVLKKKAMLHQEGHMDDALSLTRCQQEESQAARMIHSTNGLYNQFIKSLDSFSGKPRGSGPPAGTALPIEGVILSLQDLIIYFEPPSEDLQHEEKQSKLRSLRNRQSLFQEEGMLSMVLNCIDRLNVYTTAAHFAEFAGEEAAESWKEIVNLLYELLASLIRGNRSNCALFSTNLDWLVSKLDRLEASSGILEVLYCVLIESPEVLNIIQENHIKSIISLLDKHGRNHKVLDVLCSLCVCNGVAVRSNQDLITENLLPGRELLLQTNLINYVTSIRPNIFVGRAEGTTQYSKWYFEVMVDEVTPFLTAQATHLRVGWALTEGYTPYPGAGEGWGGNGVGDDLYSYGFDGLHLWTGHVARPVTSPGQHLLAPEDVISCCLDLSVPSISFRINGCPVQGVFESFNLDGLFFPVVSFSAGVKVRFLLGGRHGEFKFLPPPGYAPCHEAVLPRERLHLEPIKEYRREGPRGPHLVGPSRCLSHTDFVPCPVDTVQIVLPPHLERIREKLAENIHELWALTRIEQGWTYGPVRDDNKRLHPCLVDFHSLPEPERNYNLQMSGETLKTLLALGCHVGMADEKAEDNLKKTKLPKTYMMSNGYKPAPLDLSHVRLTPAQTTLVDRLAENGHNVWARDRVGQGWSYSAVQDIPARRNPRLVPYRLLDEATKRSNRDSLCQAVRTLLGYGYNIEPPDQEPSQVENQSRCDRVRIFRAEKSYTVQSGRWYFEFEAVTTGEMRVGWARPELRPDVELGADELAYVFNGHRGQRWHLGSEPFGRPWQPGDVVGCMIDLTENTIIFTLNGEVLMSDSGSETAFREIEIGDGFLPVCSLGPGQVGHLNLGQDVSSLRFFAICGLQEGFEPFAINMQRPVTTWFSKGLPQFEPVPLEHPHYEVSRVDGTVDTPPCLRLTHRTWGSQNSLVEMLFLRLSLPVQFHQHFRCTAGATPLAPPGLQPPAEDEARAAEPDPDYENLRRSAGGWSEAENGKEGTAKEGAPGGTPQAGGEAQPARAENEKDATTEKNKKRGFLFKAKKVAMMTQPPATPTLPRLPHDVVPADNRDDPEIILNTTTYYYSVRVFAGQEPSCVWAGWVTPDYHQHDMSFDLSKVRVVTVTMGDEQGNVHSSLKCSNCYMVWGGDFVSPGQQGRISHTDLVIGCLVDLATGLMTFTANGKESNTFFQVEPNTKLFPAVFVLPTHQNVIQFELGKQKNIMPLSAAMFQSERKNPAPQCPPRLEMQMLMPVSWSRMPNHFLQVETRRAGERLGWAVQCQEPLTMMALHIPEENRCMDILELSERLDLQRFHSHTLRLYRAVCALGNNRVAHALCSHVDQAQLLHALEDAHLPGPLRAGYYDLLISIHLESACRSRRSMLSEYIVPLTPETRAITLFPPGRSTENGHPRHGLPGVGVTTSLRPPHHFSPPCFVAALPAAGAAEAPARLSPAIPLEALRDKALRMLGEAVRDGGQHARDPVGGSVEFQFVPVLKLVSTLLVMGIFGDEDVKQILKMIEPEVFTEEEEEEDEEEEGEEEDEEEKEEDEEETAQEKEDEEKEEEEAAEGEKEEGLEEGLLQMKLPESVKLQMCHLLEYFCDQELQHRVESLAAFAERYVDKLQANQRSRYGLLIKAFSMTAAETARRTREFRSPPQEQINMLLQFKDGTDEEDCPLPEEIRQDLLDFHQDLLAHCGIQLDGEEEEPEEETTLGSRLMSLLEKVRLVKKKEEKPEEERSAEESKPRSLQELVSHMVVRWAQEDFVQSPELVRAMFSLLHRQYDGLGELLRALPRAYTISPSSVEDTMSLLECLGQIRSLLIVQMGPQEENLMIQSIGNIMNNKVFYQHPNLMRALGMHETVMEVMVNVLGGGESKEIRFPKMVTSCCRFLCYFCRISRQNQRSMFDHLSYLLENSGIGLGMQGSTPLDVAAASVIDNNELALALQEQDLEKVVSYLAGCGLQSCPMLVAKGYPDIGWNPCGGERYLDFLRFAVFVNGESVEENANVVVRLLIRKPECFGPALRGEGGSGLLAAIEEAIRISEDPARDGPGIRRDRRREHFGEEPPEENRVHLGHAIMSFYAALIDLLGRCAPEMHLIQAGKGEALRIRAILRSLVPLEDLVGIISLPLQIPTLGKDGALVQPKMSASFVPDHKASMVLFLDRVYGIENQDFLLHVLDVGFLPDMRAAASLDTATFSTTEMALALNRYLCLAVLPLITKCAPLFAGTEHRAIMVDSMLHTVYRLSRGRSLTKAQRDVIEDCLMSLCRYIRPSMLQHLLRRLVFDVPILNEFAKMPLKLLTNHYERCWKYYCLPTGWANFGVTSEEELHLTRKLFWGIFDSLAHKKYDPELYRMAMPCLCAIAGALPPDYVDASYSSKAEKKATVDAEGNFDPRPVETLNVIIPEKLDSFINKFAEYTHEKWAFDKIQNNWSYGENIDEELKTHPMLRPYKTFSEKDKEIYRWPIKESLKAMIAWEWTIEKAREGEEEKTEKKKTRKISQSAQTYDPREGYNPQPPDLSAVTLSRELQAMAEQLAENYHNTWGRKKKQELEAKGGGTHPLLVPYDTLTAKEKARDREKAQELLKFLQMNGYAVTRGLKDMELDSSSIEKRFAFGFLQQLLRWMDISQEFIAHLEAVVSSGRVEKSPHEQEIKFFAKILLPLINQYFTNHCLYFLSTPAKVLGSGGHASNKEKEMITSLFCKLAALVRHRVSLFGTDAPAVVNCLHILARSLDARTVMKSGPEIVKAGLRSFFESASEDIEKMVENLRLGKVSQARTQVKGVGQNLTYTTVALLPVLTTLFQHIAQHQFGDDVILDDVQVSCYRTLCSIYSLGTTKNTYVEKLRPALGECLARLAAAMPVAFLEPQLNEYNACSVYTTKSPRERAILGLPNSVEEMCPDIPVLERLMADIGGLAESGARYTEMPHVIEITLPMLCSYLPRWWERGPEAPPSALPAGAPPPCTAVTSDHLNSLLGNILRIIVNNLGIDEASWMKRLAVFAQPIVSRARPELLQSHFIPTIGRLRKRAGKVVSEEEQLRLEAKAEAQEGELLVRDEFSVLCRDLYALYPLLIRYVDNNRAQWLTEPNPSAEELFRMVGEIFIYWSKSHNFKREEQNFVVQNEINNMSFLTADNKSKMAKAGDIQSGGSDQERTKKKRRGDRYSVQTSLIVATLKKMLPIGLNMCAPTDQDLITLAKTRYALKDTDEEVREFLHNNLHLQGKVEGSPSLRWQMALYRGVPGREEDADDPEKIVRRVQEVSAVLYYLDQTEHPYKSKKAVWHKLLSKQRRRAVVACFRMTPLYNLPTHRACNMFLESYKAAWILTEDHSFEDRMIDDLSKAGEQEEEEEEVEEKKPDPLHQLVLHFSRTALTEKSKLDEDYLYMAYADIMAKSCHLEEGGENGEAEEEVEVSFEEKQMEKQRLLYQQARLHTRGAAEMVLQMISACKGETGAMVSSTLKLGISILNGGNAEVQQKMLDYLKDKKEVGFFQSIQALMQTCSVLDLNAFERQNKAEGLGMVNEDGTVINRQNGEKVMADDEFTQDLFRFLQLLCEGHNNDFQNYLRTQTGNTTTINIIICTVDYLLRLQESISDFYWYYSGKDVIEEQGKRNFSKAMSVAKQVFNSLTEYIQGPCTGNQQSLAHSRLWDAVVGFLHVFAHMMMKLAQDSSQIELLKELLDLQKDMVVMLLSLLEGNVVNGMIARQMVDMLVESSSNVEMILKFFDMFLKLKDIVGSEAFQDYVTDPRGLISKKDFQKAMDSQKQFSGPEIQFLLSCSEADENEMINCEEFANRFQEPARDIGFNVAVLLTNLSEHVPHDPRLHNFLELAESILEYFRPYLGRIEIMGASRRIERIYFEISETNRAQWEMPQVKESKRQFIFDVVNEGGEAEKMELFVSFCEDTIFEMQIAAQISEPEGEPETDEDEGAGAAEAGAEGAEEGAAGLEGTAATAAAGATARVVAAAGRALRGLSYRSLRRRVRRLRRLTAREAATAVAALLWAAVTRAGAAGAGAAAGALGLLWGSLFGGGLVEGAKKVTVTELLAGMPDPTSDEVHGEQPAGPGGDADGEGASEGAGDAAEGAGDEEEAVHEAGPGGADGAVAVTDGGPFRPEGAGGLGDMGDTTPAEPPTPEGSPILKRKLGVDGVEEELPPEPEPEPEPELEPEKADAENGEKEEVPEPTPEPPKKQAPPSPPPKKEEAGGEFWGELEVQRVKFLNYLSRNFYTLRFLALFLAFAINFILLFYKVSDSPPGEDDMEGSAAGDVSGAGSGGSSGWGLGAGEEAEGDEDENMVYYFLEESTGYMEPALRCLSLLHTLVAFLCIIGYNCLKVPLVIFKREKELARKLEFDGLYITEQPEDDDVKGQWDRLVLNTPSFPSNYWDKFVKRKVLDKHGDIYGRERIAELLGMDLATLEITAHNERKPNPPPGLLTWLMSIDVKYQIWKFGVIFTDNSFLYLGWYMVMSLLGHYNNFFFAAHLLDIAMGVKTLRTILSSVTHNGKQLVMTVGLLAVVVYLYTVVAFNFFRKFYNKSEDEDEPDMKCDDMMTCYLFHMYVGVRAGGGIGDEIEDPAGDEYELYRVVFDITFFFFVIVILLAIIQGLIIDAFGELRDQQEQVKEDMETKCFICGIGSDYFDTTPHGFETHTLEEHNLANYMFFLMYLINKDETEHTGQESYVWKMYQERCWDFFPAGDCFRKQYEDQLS
UniProt Q7L099: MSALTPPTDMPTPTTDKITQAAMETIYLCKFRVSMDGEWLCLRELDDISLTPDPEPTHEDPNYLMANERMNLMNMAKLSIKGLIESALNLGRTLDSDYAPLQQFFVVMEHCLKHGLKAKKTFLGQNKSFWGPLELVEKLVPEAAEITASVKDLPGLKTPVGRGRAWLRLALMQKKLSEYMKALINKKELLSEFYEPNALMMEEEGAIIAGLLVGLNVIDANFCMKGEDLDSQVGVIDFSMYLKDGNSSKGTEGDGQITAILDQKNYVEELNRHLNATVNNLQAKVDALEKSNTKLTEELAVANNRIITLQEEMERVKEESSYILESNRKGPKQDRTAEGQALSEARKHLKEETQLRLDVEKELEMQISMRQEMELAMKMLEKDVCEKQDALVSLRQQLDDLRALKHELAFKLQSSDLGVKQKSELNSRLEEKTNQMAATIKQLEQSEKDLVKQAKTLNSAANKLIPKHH
UniProt Q6P087: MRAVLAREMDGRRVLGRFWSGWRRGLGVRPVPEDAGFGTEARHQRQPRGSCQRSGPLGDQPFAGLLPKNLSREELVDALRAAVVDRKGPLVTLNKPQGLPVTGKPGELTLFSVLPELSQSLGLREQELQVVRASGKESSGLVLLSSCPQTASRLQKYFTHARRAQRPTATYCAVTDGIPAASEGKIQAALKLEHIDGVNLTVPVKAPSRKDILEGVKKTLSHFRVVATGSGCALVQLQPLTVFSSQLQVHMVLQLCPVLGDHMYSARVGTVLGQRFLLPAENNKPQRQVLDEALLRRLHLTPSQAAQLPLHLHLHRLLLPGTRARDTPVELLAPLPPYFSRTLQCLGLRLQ
UniProt Q9Y2B1: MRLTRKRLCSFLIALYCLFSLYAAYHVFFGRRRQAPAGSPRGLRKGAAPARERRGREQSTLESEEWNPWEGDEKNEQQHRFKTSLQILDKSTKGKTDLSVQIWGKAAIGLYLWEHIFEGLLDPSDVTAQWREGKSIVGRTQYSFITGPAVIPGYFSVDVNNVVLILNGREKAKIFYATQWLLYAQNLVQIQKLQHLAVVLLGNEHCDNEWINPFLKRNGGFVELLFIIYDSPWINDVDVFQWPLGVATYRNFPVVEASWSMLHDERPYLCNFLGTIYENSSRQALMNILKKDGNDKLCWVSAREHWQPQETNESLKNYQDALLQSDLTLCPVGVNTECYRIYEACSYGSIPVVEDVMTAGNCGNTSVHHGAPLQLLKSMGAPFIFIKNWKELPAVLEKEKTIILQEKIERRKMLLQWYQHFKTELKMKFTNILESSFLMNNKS
UniProt Q86WX3: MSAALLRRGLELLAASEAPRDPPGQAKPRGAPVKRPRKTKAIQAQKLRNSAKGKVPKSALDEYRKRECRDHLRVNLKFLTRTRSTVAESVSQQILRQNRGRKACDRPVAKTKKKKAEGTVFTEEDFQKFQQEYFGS
UniProt A6ZKI3: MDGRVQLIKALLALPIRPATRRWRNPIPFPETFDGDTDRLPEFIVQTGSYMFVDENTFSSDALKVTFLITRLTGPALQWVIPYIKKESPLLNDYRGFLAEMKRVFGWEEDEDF

Columns and labels:
Assay in all cases: log2 fold change, soluble protein after heating vs DMSO (PISA); higher = thermal stabilisation; K562 lysate, 10 uM; active = over 0.2 and 3.5 SD of the protein, either way, in both replicates (recomputed)
[1] = compound: CCCS(=O)(=O)Nc1ccc(F)c(C(=O)c2c[nH]c3ncc(Cl)cc23)c1F
Procedure, shortened: (§1)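 Values give the log-two fold change in thermal stability against solvent controls, from duplicates. Crude K562 extract at 1 mg/mL protein, made by dounce homogenisation in PBS pH 7.4 with 1 mM MgCl2, was treated with 10 μM compound for 30 min. After 3 min heating across 48°C-58°C, aliquots were pooled, adjusted to 0.5% NP-40 at 4°C and centrifuged at 21,000xg for 90 min. The supernatant was measured by TMTpro 16plex LC-MS/MS with channel sums equalised.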

[2] = compound: CCN(CCCOc1ccc2c(Nc3cc(CC(=O)Nc4cccc(F)c4)[nH]n3)ncnc2c1)CCOP(=O)(O)O [barasertib]
Procedure, shortened: as §1

[3] = compound: CC[C@@H]1C(=O)N(C)c2cnc(Nc3ccc(C(=O)NC4CCN(C)CC4)cc3OC)nc2N1C1CCCC1
Procedure, shortened: as §1

[4] = compound: CC[C@@H]1C(=O)N(C)c2cnc(Nc3ccc(C(=O)N[C@H]4CC[C@H](N5CCN(CC6CC6)CC5)CC4)cc3OC)nc2N1C(C)C [volasertib]
Procedure, shortened: as §1

[5] = compound: CCn1c(C(=O)N(C2CC2)C2CC2)cc2c3c(ncn3C)c(Nc3cc(C)n(C)n3)nc21
Procedure, shortened: as §1

[6] = compound: CCn1cc(-c2ccnc3[nH]c(-c4cccc(CN(C)C)c4)cc23)c(-c2ccc(NC(=O)N(C)C)cc2)n1
Procedure, shortened: as §1

[7] = compound: CN1CCC(CNc2ccc3ncc(-c4cccc(OC(F)(F)F)c4)n3n2)CC1
Procedure, shortened: as §1

[8] = compound: CN1CCN(CCOc2cc(OC3CCOCC3)c3c(Nc4c(Cl)ccc5c4OCO5)ncnc3c2)CC1 [saracatinib]
Procedure, shortened: as §1

[9] = compound: CN1CCN(c2nc(C3=C(c4c[nH]c5ccccc45)C(=O)NC3=O)c3ccccc3n2)CC1 [sotrastaurin]
Procedure, shortened: as §1

[10] = compound: CN1CC[C@H](c2c(O)cc(O)c3c(=O)cc(-c4ccccc4Cl)oc23)[C@H](O)C1 [alvocidib]
Procedure, shortened: as §1

[11] = compound: CN1CCc2c(c3ccccc3n2Cc2ccc(C(=O)NO)cc2)C1 [Tubastatin A]
Procedure, shortened: as §1

[12] = compound: CNC(=O)C1=CC=CC=C1NC2=NC(=NC=C2Cl)NC3=C(C=C(C=C3)N4CCOCC4)OC
Procedure, shortened: as §1

[13] = compound: CNc1nc(-c2ccc3c(N)n[nH]c3c2)cc(N2C[C@@H](C(=O)NC3CCCCC3)CC[C@H]2C)n1
Procedure, shortened: as §1

[14] = compound: COC(=O)N[C@@H](C)CNc1nccc(-c2cn(C(C)C)nc2-c2cc(Cl)cc(NS(C)(=O)=O)c2F)n1 [encorafenib]
Procedure, shortened: as §1

[15] = compound: COC(=O)[C@H](CCSC)NC(=O)C1=C(C=C(C=C1)NC[C@H](CS)N)C2=CC=CC=C2
Procedure, shortened: as §1

[16] = compound: COc1cc2nc(-c3cc(F)ccc3O)nc(N[C@@H]3CNC[C@H]3C(C)(C)O)c2cc1OC
Procedure, shortened: as §1

[17] = compound: CCCS(=O)(=O)Nc1ccc(F)c(C(=O)c2c[nH]c3ncc(-c4ccc(Cl)cc4)cc23)c1F [vemurafenib]
Procedure, shortened: as §1

[18] = compound: CNC(=O)c1ccc(Nc2ncc(C(F)(F)F)c(NCc3nccnc3N(C)S(C)(=O)=O)n2)cc1 [defactinib]
Procedure, shortened: as §1

[19] = compound: COc1cc(Nc2ncc3c(n2)-c2ccc(Cl)cc2C(c2c(F)cccc2OC)=NC3)ccc1C(=O)O [alisertib]
Procedure, shortened: as §1

[20] = compound: COc1cc2ncnc(Nc3ccc(F)c(Cl)c3)c2cc1OCCCN1CCOCC1 [gefitinib]
Procedure, shortened: as §1

Measured: log2 fold change

RYR1 (UniProt P21817)
inactive: [1] -0.038 | [2] 0.041 | [3] 0.07 | [4] -0.049 | [5] -0.053 | [6] 0.045 | [7] 0.03 | [8] 0.057 | [9] 0.091 | [10] 0.015 | [11] 0.097 | [12] 0.064 | [13] 0.16 | [14] -0.024 | [15] -0.087 | [16] 0.02

RUFY3 isoform 2 (UniProt Q7L099)
inactive: [1] 0.072 | [2] -0.003 | [4] -0.095 | [5] 0.089 | [6] 0.455 | [7] -0.149 | [8] 0.049 | [9] 0.067 | [10] 0.1 | [11] -0.172 | [12] -0.018 | [13] -0.03 | [16] 0.067

RPUSD3 (UniProt Q6P087)
inactive: [17] -0.006 | [3] -0.004 | [6] 0.054 | [7] -0.101 | [8] -0.066 | [9] -0.037 | [10] 0.018 | [12] -0.036 | [18] -0.003 | [13] -0.054 | [14] 0.022 | [15] 0.064 | [19] -0.012 | [20] 0.059

RSL24D1 (UniProt Q9UHA3)
inactive: [1] 0.039 | [3] 0.195 | [4] 0.01 | [5] -0.006 | [6] 0 | [7] -0.094 | [8] 0.049 | [9] -0.201 | [10] 0.041 | [11] -0.01 | [12] 0.145 | [13] 0.044 | [14] -0.147 | [15] 0.029 | [19] -0.047 | [16] 0 | [20] 0.012

RPUSD1 (UniProt Q9UJJ7)
inactive: [17] -0.007 | [3] 0.176 | [5] -0.18 | [6] 0.014 | [7] -0.137 | [8] 0.037 | [10] 0.064 | [11] -0.033 | [18] -0.016 | [13] 0.179 | [14] -0.113 | [15] 0.127

RXYLT1 (UniProt Q9Y2B1)
inactive: [1] -0.103 | [4] -0.001 | [5] -0.112 | [8] 0.091 | [11] -0.058 | [12] -0.163 | [13] -0.065 | [19] 0.004 | [16] 0.22 | [20] -0.088

S100A14 (UniProt Q9HCY8)
inactive: [1] -0.036 | [2] 0.248 | [3] -0.332 | [4] -0.039 | [5] 0.17 | [8] 0.104 | [11] 0.168 | [12] -0.024 | [13] -0.373 | [14] 0 | [15] 0.219 | [16] -0.15

RPP30 (UniProt Q5VU11)
inactive: [17] 0.129 | [3] 0.127 | [18] -0.215 | [14] -0.004 | [15] -0.049

RUNDC1 (UniProt Q96C34)
inactive: [2] -0.073 | [5] -0.085 | [6] -0.091 | [7] 0.054 | [8] -0.09 | [9] 0.012 | [10] -0.024 | [11] -0.321 | [12] 0.072 | [13] 0.083

RWDD3 (UniProt Q9Y3V2)
inactive: [5] 0.199 | [6] 0.392 | [7] -0.169 | [8] 0.115 | [9] 0.034 | [10] -0.089 | [11] 0.177 | [13] -0.204

RSRP1 (UniProt Q9BUV0)
inactive: [8] 0.016 | [13] -0.072

RPS19BP1 (UniProt Q86WX3)
inactive: [1] -0.106 | [3] 0.11 | [4] -0.022 | [9] 0.041 | [14] 0.281 | [15] 0.16 | [16] 0.077

RTEL1 isoform 2 (UniProt Q9NZ71)
inactive: [8] 0.14 | [13] -0.014 | [19] -0.049 | [20] 0.083

RTN4 isoform 3 (UniProt Q9NQC3)
inactive: [3] 0.144 | [14] -0.374 | [15] 0.042

RUFY2 isoform 1 (UniProt Q8WXA3)
inactive: [17] 0.01 | [2] -0.206 | [3] 0.038 | [5] -0.026 | [6] -0.009 | [7] -0.178 | [9] 0.001 | [10] 0.01 | [11] 0.074 | [18] 0.066 | [14] 0.13 | [15] -0.031 | [19] 0.003 | [20] 0.053

S100A12 (UniProt P80511)
inactive: [17] -0.034 | [18] -1.68

RPUSD4 (UniProt Q96CM3)
inactive: [17] 0 | [2] 0.031 | [5] -0.009 | [6] -0.157 | [7] 0.034 | [8] -0.005 | [9] 0.016 | [10] -0.006 | [11] 0.068 | [12] -0.022 | [18] -0.139 | [13] 0.015 | [19] 0.016 | [20] 0.086

RPS19 (UniProt M0R2L9)
inactive: [17] 0.167 | [3] 0.092 | [5] -0.125 | [8] -0.458 | [9] 0.413 | [11] 0.199 | [12] -0.296 | [18] 0.152 | [13] 0.015 | [14] -0.224 | [15] 0

Two consecutive entries from above, for reference:
RSL24D1 (UniProt Q9UHA3)
inactive: [1] 0.039 | [3] 0.195 | [4] 0.01 | [5] -0.006 | [6] 0 | [7] -0.094 | [8] 0.049 | [9] -0.201 | [10] 0.041 | [11] -0.01 | [12] 0.145 | [13] 0.044 | [14] -0.147 | [15] 0.029 | [19] -0.047 | [16] 0 | [20] 0.012

RPUSD1 (UniProt Q9UJJ7)
inactive: [17] -0.007 | [3] 0.176 | [5] -0.18 | [6] 0.014 | [7] -0.137 | [8] 0.037 | [10] 0.064 | [11] -0.033 | [18] -0.016 | [13] 0.179 | [14] -0.113 | [15] 0.127

Going on with the list.

RPS15, A0A0B4J2B4
inactive: [1] -0.091 | [4] -0.08 | [19] -0.12 | [16] 0.077 | [20] -0.128

RPS6KB2 (UniProt Q9UBS0)
inactive: [1] 0.037 | [3] -0.117 | [4] 0.083 | [6] 0.001 | [7] -0.117 | [8] 0.008 | [9] 0.149 | [10] 0.09 | [12] 0.222 | [13] -0.037 | [14] 0.132 | [15] 0.066 | [19] 0.013 | [16] -0.063 | [20] -0.037

RRBP1 isoform 3 (UniProt Q9P2E9)
inactive: [17] 0.054 | [2] -0.023 | [3] 0.006 | [5] -0.034 | [8] 0.023 | [9] 0.012 | [11] 0.018 | [12] -0.074 | [18] 0.088 | [13] -0.011 | [14] -0.065 | [15] -0.044

S100A7A (UniProt Q86SG5)
inactive: [9] -0.205 | [12] 0.031

RTL8A (UniProt Q9BWD3)
inactive: [17] -0.117 | [3] 0.024 | [9] 0.031 | [18] 0.075 | [14] -0.054 | [15] -0.141

RPSA (UniProt F8WD59)
inactive: [6] 0.95 | [7] -0.006 | [8] -0.262 | [10] 0.092 | [13] -0.053 | [19] -0.363 | [20] 0.041

RTN4, A0A0U1RQR6
inactive: [5] -0.293 | [6] -0.032 | [7] 0.098 | [10] -0.037 | [11] 0.243

RTL8C (UniProt A6ZKI3)
inactive: [17] 0.049 | [3] -0.168 | [5] 0.04 | [8] -0.178 | [9] 0.065 | [11] -0.098 | [12] -0.139 | [18] -0.055 | [13] -0.101 | [14] -0.064 | [15] 0.207 | [19] 0.09 | [20] -0.011

RSC1A1 (UniProt Q92681)
inactive: [2] 0.009 | [8] 0.139 | [9] 0.053 | [13] -0.128 | [19] 0.052 | [20] 0.072

RTN4R (UniProt Q9BZR6)
inactive: [12] -0.103

S100A16 (UniProt Q96FQ6)
inactive: [1] -0.264 | [2] 0.271 | [4] -0.171 | [6] 0.075 | [7] 0.072 | [9] 0.131 | [10] 0.043 | [19] -0.079 | [16] 0.069 | [20] 0.542
